# The list shows a part of the results.
# Sequences of proteins named here, by UniProt entry; tags and fusion partners are left off.
# UniProt Q0JBA9, entry or part of it: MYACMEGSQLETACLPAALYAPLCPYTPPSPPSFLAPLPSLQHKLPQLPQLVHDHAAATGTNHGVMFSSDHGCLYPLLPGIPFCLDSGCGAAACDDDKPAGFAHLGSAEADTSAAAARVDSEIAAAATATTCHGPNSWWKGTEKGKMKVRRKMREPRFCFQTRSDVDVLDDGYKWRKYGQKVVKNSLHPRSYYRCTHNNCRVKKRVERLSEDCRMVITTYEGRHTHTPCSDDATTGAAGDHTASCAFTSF
# Molecular target: OsWRKY34 (Oryza sativa, UniProt Q0JBA9 1-250)
# Assay: protein-binding microarray (RPBM); PBS, 2% BSA, 51.3 ng/ul salmon testes DNA, 50 uM zinc acetate, 200 nM TF, 25 C, 1 h; high values mean tight binding
# Conditions: protein: recombinant; tags: N-terminal polyhistidine and DsRed monomer fusion (pET32a); label: CyDye5-dUTP incorporated in the synthesized complementary strand; 3' TTTTT single-stranded linker to array surface; dsDNA, one strand shown
# Outline: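 The binding signal is fluorescence intensity per array feature (arbitrary units). Readings came from an Axon 4000B scanner after a washed, 2% BSA-blocked, double-stranded custom Agilent array had been incubated for 1 h at 25 °C with 200 nM protein and 50 µM zinc acetate. The protein was a Ni–NTA-purified transcription factor fused N-terminally to polyhistidine and DsRed, expressed in E. coli BL21-CodonPlus.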
row,Sequence,binding signal
1,TTAGCAAGATATGTAACCTTTATTTGACTAGTCATGCAATCGGAGTCACCTAGTGCAG,12300 fluorescence intensity (a.u.)
2,ACTGCTAGCTGGTTAATACATTTTGCATGTTCTATTGCATCGGAGTCACCTAGTGCAG,11000 fluorescence intensity (a.u.)
3,CCGCCGCCGCCGCCGCCTTCCGCCGCCTCGAACCGGACCACGGAGTCACCTAGTGCAG,9400 fluorescence intensity (a.u.)
4,TAAATTTTACATGTTGATGATTTGTTTTTACTTTTTTTCACGGAGTCACCTAGTGCAG,9570 fluorescence intensity (a.u.)
5,ATTATTGTCGTCCTTGTCACCAGTGTTGTCGCCGCTCATACGGAGTCACCTAGTGCAG,12400 fluorescence intensity (a.u.)
6,TACGCCTGATTGGATCCCCACCCCTATCTCCACTGACTGTCGGAGTCACCTAGTGCAG,10400 fluorescence intensity (a.u.)
7,TTTTGTGTGTGTCCTGATACTGGGAATCTGCAATCTACATCGGAGTCACCTAGTGCAG,11200 fluorescence intensity (a.u.)
8,TTTCATTCTCTTGTTCCTCATGTCTCATGATGCACCTTGCCGGAGTCACCTAGTGCAG,10900 fluorescence intensity (a.u.)
9,TAGTATTGCTGTATTGCACGTTGAACAGACAATCTTTCCTCGGAGTCACCTAGTGCAG,8900 fluorescence intensity (a.u.)
10,AAACCACCTCAACCACAATTTCTCATGGTCAGTTTCACTACGGAGTCACCTAGTGCAG,9300 fluorescence intensity (a.u.)
11,GGGCCCACGTAGCTCGACCCCACCTGTCACTCGCTCACACCGGAGTCACCTAGTGCAG,8310 fluorescence intensity (a.u.)
12,ACGGTCAGCGAATTCCGGAAGCCCATTACATCACACCCATCGGAGTCACCTAGTGCAG,8160 fluorescence intensity (a.u.)
13,TATTTGGGCTGGACCAAGAACTACCGTTGACTTTGGTTGGCGGAGTCACCTAGTGCAG,16300 fluorescence intensity (a.u.)
14,TCGTTCCTCTTCAGCACTACCACCATTTTGGACAAGGCGCCGGAGTCACCTAGTGCAG,8310 fluorescence intensity (a.u.)
15,AGTGGCAGTGTTTGACGGGATTTCTAAAAATTATATATATCGGAGTCACCTAGTGCAG,8290 fluorescence intensity (a.u.)
16,CACAGTGATCCTCTATTATGCTTTGCTGGTGTGCTTTTGACGGAGTCACCTAGTGCAG,9310 fluorescence intensity (a.u.)
17,CGTCGCGGCGTGCATCTCCTCACCAGCTCCACACCTCGCTCGGAGTCACCTAGTGCAG,11500 fluorescence intensity (a.u.)
18,GATTGCACTTATTTTGAGACGGGTGTAGTATTATATTTTCCGGAGTCACCTAGTGCAG,10100 fluorescence intensity (a.u.)
19,TATATAACTCCTTCACTTTGGACTCGTAAAGCTCACACAACGGAGTCACCTAGTGCAG,8540 fluorescence intensity (a.u.)
20,CAAGTTCCTGTAAATTCAGAACAAGTCAACGCCGGTCAACCGGAGTCACCTAGTGCAG,8520 fluorescence intensity (a.u.)
21,GTTTGCTCATCTCATTCGTCGCGACCCCTCGCCTCTGTATCGGAGTCACCTAGTGCAG,9560 fluorescence intensity (a.u.)

# Looked up above:
# For binding signal, CGTCGCGGCGTGCATCTCCTCACCAGCTCCACACCTCGCTCGGAGTCACCTAGTGCAG is entered as 11500 fluorescence intensity (a.u.)
# For binding signal, TATATAACTCCTTCACTTTGGACTCGTAAAGCTCACACAACGGAGTCACCTAGTGCAG is entered as 8540 fluorescence intensity (a.u.)

# The list continues:

row,Sequence,binding signal
1,ATTATTTGTCTAAATTTAAATTCTATACCGTGACAAATATCGGAGTCACCTAGTGCAG,8080 fluorescence intensity (a.u.)
2,TCATCCACTTTGCTACGAGTTTGCTTTTTCTCTAATTCAACGGAGTCACCTAGTGCAG,11200 fluorescence intensity (a.u.)
3,GACATACTCTGCTAATATGCTTCTTGCTCCATTTACTTTACGGAGTCACCTAGTGCAG,8520 fluorescence intensity (a.u.)
4,ACCGGACATTCCACTCCACTGCAACACCCTTCTCTTGCTCCGGAGTCACCTAGTGCAG,10600 fluorescence intensity (a.u.)
5,GCATCCTAACATCCCGCCGAAGGACCTTTTCAACCTCATCCGGAGTCACCTAGTGCAG,8300 fluorescence intensity (a.u.)
6,TCGTGTTCTCTCTCTACCATTCCATCTTCTAGCACAACAGCGGAGTCACCTAGTGCAG,13500 fluorescence intensity (a.u.)
7,GATAACATGTTGTAGTCTTCCAGGGGTGGGTGTTAGCTGTCGGAGTCACCTAGTGCAG,16700 fluorescence intensity (a.u.)
8,CCCCTGTGTGTTCTTCTTGCTGGCTTTCTCGTCCTTGTCTCGGAGTCACCTAGTGCAG,11600 fluorescence intensity (a.u.)
9,GCGTGCCCTTCACATGCATGCTCGTCTCTCGGTCTCGTTCCGGAGTCACCTAGTGCAG,11600 fluorescence intensity (a.u.)
10,TAACAGCGGGGAGAATGGGCAAAAGTGGGAGCGGCAGCGACGGAGTCACCTAGTGCAG,9040 fluorescence intensity (a.u.)
11,TTGGGAGTTCTGTACACAGCAACCAAAATGCATTTTCATACGGAGTCACCTAGTGCAG,8490 fluorescence intensity (a.u.)
12,TTACCTACGTGGAGCATCATTTTTAACCGAGGCAAATTTTCGGAGTCACCTAGTGCAG,10300 fluorescence intensity (a.u.)
13,CTCATCGCGCTACTGATCCGGTGGTTCCCGTCCGAGTGCTCGGAGTCACCTAGTGCAG,8640 fluorescence intensity (a.u.)
14,CTGTGGCATGATATGGTAGGTGGTAAAACGTTCTTTTCCACGGAGTCACCTAGTGCAG,10500 fluorescence intensity (a.u.)
15,ATCTCCCTTAGCTAGCTACTCGATCTTAACAGTGAGCTTCCGGAGTCACCTAGTGCAG,8640 fluorescence intensity (a.u.)
16,TAGTTGGGTGCGGGCGTTGTTTAATTGTTTGAGTGAAAAACGGAGTCACCTAGTGCAG,9260 fluorescence intensity (a.u.)
17,CGACAGACTAACCATCGCCAGCGTCAACAACGTCTTGACTCGGAGTCACCTAGTGCAG,8380 fluorescence intensity (a.u.)
18,CACATGGAGAAGAATTTTCTTTTGCTTTACCAAATCGCCTCGGAGTCACCTAGTGCAG,8270 fluorescence intensity (a.u.)
19,TGACACCGTTGACTTTTTTGTCTAAAGTTTAACCATTCGTCGGAGTCACCTAGTGCAG,32400 fluorescence intensity (a.u.)
20,AATAGATGACGCCGTTGATTTTTTCTCACATGTTTGACCACGGAGTCACCTAGTGCAG,11700 fluorescence intensity (a.u.)
21,CTAATACATTGCCTCGTTTTTCTCTATAGACTATCTCCAGCGGAGTCACCTAGTGCAG,8460 fluorescence intensity (a.u.)

# Reference: PMC7819943, “Rice protein-binding microarrays: a tool to detect cis-acting elements near promoter regions in rice”
